Consider 26 sequences from patent US20040253243.

The chains behind the UniProt entries cited, without tags or fusion partners. A line that says so, or that is headed by a name, gives the form on record, which may keep a tag or linker.
UniProt P61812, other isoform, or with tags, fused parts or gaps: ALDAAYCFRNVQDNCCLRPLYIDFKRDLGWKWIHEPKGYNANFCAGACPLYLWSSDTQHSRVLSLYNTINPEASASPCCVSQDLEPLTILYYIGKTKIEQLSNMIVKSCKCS

In this data set the target is TGF-beta2 (mature, wild type) (Homo sapiens) (UniProt P61812). Kind of data set: filter binding. The conditions noted are these: 2'-OH purines, purified recombinant protein; for Kd: DPBS, 1 mM MgCl2, room temperature.

Construct, isoform or probe ends are uncertain for at least one entry.

By Kd is commonly meant the constant that tells how readily two partners part at equilibrium. Take “AAGGAGUAUUAUAGAGUAUGUAUAGCUAUACCAU [ARC281 (CW128.10.R)]”: the Kd (2'-F C and U, 3'-3T, variant of S5CR12-15) is 1.42 nM.

As to “ACAGAGUAUUAUAGAGUAUGUAUAGCUAUACUGUC [ARC283 (CW128.10.M)]”, the Kd (2'-F C and U, 3'-3T, variant of ARC235 (S5CR8-45 full length)) is 1.27 nM.

Take “AGGGAAUAUUAUAGAGUAUGUAUAGCUAUACCAU [ARC282 (CW128.10.U)]”: the Kd (2'-F C and U, 3'-3T, variant of AMX(71)_A8) stood at 0.62 nM.

Regarding “AUAGAGCAUUAUAGAGUAUGUAUAGCUAUACUAU [CW128.10.F (AMX(71)_C11)]”, where the note is “2'-F C and U, 3'-3T, variant of AMX(71)_C11”, the Kd is 3.66 nM.

Turning to “GACAGAGUAUUAUAGAGUAUGUAUAGCUAUACUGU [ARC284 (CW128.11.R)]”, under “2'-F C and U, 3'-3T, variant of ARC230 (S5R8-45)”, the Kd came to 0.11 nM.

For “GGGAGGACGAUGCGGAAAGAGUAUUAUAGAGUCUGUAUAGCUAUACUUUCAGACGACUCGCCCGA [AMX(71)_H7]”, the binding result (2'-F pyrimidines) is reported as “binds”.

Regarding “GGGAGGACGAUGCGGAACGAAUAUUACAGAGUAUGUAUAGCUGUACGGUCAGACGACUCGCCCGA [ARC231 (S5CR8-14)]”, under “2'-F pyrimidines”, the binding result is given as “binds”.

As for “GGGAGGACGAUGCGGAAGGAAUAUUAUAGAGUAUGUAUAGCUAUACCAUCAGACGACUCGCCCGA [AMX(71)_H10]”, where the note is “2'-F pyrimidines”, the binding result was “binds”.

On to “GGGAGGACGAUGCGGAAGGAGUAUUAUAGAGUAUGUAUAGCUAUACCAGACGACUCGCCCGA [S5CR12-12]”, for which the binding result (2'-F pyrimidines) is “binds”.

As to “GGGAGGACGAUGCGGAAGGAGUAUUAUAGAGUAUGUAUAGCUAUACCAUCAGACGACUCGCCCGA [S5CR12-15]”, where the note is “2'-F pyrimidines”, the binding result is on record as “binds”.

In the case of “GGGAGGACGAUGCGGACAGAGCAUUAUAGAGUGUGUAUAGCUGUACUGUCAGACGACUCGCCCGA [AMX(71)_F11]”, the binding result (2'-F pyrimidines) is “binds”.

For “GGGAGGACGAUGCGGACAGAGUAUUAUAGAGUAUGUAUAGCUAUACUAUCAGACGACUCGCCCAA [AMX(71)_F3]”, the binding result (2'-F pyrimidines) is “binds”.

Take “GGGAGGACGAUGCGGACAGAGUAUUAUAGAGUAUGUAUAGCUAUACUGCAGACGACUCGCCCGA [S5R12-12]”: under “2'-F pyrimidines”, the binding result is “binds”.

Turning to “GGGAGGACGAUGCGGACAGAGUAUUAUAGAGUAUGUAUAGCUAUACUGCCAGACGACUCGCCCGA [S5R12-33]”, the binding result (2'-F pyrimidines) is recorded as “binds”.

In the case of “GGGAGGACGAUGCGGACAGAGUAUUAUAGAGUAUGUAUAGCUAUACUGUCCAGACGACUCGCCCGA [ARC235 (S5CR8-45 full length)]”, the Kd (2'-F pyrimidines, full length) was 0.53 nM.

Take “GGGAGGACGAUGCGGACAGAGUAUUAUAGAGUAUGUGUAGCUAUACCGUCAGACGACUCGCCCGA [AMX(71)_G9]”: the binding result (2'-F pyrimidines) was “binds”.

Turning to “GGGAGGACGAUGCGGAGAAGAGUAUUAUAGAGUCUGUAUAGCUAUACUUCAGACGACUCGCCCGA [AMX(71)_H9]”, the binding result (2'-F pyrimidines) was “binds”.

Consider “GGGAGGACGAUGCGGAGAGAUUAUUAUAGAGUAUGUAUAGCUGUACUGCCAGACGACUCGCCCGA [AMX(74)_G6]”, for which the binding result (2'-F pyrimidines) is given as “binds”.

For the sequence “GGGAGGACGAUGCGGAGGGAAUAUUAUAGAGUAUGUAUAGCUAUACCAUCAGACGACUCGCCCGA [AMX(71)_A8]”, the binding result (2'-F pyrimidines) is reported as “binds”.

As for “GGGAGGACGAUGCGGAGUGAGUAUUAUAGAGUAUGUAUAGCUAUACACAUCAGACGACUCGCCCGA [S5CR8-28]”, the binding result (2'-F pyrimidines) is “binds”.

On to “GGGAGGACGAUGCGGAUAGAGCAUUAUAGAGUAUGUAUAGCUAUACUAUCAGACGACUCGCCCGA [AMX(71)_C11]”, for which the binding result (2'-F pyrimidines) is “binds”.

Consider “GGGAGGACGAUGCGGAUCGAAUAUUAUAGAGUAUGUAUAGCUAUACGGUCAGACGACUCGCCCGA [AMX(71)_A11]”, for which, where the note is “2'-F pyrimidines”, the binding result is “binds”.

Consider “GGGAGGACGAUGCGGAUCGAGUAUUAUAGAGUAUGUAUAGCUAUACGAUCAGACGACUCGCCCGA [S5CR12-27]”, for which, under “2'-F pyrimidines”, the binding result is recorded as “binds”.

With “GGGAGGACGAUGCGGAUCGAGUAUUAUAGAGUAUGUAUAGCUAUACUAUCAGACGACUCGCCCGA [AMX(71)_F7]”, the binding result (2'-F pyrimidines) is recorded as “binds”.

As to “GGGAGGACGAUGCGGAUGGAGUAUUAUAGAGUAUGUAUAGCUAUACCAUCAGACGACUCGCCCGA [AMX(71)_B11]”, the binding result (2'-F pyrimidines) is “binds”.

“GGGAGGACGAUGCGGGAAGAGUAUUACAGAGUAUGUAUAGCUGUACUGCCAGACGACUCGCCCGA [AMX(74)_D3]”: the binding result (2'-F pyrimidines) is “binds”.
